From PMC7819943, “Rice protein-binding microarrays: a tool to detect cis-acting elements near promoter regions in rice”
The other results are listed elsewhere or left out.

Sequences of proteins named here, by UniProt entry; tags and fusion partners are left off.
UniProt Q0JBA9, entry or part of it: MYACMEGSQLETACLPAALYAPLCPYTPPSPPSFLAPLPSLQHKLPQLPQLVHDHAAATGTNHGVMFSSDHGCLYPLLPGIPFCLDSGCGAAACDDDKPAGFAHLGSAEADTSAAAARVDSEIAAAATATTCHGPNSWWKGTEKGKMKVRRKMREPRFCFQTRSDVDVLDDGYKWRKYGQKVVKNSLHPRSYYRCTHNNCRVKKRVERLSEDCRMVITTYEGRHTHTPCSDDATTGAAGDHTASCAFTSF

target: OsWRKY34 (Oryza sativa, UniProt Q0JBA9 1-250); assay: protein-binding microarray (RPBM); PBS, 2% BSA, 51.3 ng/ul salmon testes DNA, 50 uM zinc acetate, 200 nM TF, 25 C, 1 h; high values mean tight binding; details: protein: recombinant; tags: N-terminal polyhistidine and DsRed monomer fusion (pET32a); label: CyDye5-dUTP incorporated in the synthesized complementary strand; 3' TTTTT single-stranded linker to array surface; dsDNA, one strand shown
How it was run: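 Binding signal is defined as the fluorescence intensity of each feature in arbitrary units, read on an Axon 4000B scanner. Transcription factors with N-terminal polyhistidine and DsRed fusions came from E. coli BL21-CodonPlus and were purified on Ni–NTA. They were incubated at 200 nM for 1 h at 25 °C on a custom Agilent array that had been made double-stranded with Cy5-dUTP, with 50 µM zinc acetate present, and the array was washed.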

Row | Sequence | binding signal
1 | GCATTGTTAACTTGATTACTCTGTCCGTTTCATATTGTACCGGAGTCACCTAGTGCAG | 12300 fluorescence intensity (a.u.)
2 | GGTAAATTTTTTCATGAAAATCATTTCATATAATTATTCTCGGAGTCACCTAGTGCAG | 8920 fluorescence intensity (a.u.)
3 | AGCAAAAGTTTTGCCATTTTGTAGCACTTTTTGCCATTTTCGGAGTCACCTAGTGCAG | 8250 fluorescence intensity (a.u.)
4 | TCGCCGTGAAAGTTGCTCAACACCCGCTGAATTCTCGTTCCGGAGTCACCTAGTGCAG | 8580 fluorescence intensity (a.u.)
5 | GACATACTTTTTGGTACATCCAGTGCTGCTGCTATAAAACCGGAGTCACCTAGTGCAG | 8810 fluorescence intensity (a.u.)
6 | CTATGCCGCCAGCCATCTCGAGCTCCTCCTGACGGTTCTTCGGAGTCACCTAGTGCAG | 9520 fluorescence intensity (a.u.)
7 | AACCCTTTTTCTCCCGGGTCCATCTCCATCTGCTGGATAGCGGAGTCACCTAGTGCAG | 9300 fluorescence intensity (a.u.)
8 | AACTATTTCTACCTCTAAGCCCATTTAAGCTTCTCGGCCCCGGAGTCACCTAGTGCAG | 8800 fluorescence intensity (a.u.)
9 | CTATGTTCATCTGCATGACTGCATGCAACTGTGATTGAACCGGAGTCACCTAGTGCAG | 8170 fluorescence intensity (a.u.)
10 | TTTCTTCCTCGATCTTTGAATCAAATTCAGCCTTTTCTTTCGGAGTCACCTAGTGCAG | 8490 fluorescence intensity (a.u.)
11 | CCATGTATCTAGTACCAGTAGAACAGTTGTACTACCTCCTCGGAGTCACCTAGTGCAG | 8220 fluorescence intensity (a.u.)
12 | AAGGGAAAATCCTCTAATTTCTTTTTTTTTATTTTCTTTTCGGAGTCACCTAGTGCAG | 10100 fluorescence intensity (a.u.)
13 | TCAGCCTCAGTACCCACCACCTCCACGCTCGCGCCGTCGGCGGAGTCACCTAGTGCAG | 12500 fluorescence intensity (a.u.)
14 | GTTCTCTTCACTTCTTCTCAGTTTTTTAACTCTCTCTGAACGGAGTCACCTAGTGCAG | 8280 fluorescence intensity (a.u.)
15 | CTTTCCTCTCTTTTCTGATATTTGATTGAATAGATATTCTCGGAGTCACCTAGTGCAG | 8130 fluorescence intensity (a.u.)
16 | TGCACCTGTTATTTTCCCGTTCTCTTGTTCTTTCCATTTGCGGAGTCACCTAGTGCAG | 15700 fluorescence intensity (a.u.)
17 | TATATTTTTGGATCTTCTAGTGTACATTATTTTGTTACAACGGAGTCACCTAGTGCAG | 8590 fluorescence intensity (a.u.)
18 | CCGCCGCCGCCTCCTGCTCCTTCGACCTGCCCCGGCCCCGCGGAGTCACCTAGTGCAG | 8870 fluorescence intensity (a.u.)
19 | TGGAGGAGAGGTCGCGATGGGAGTCCGAATGTGGGCGGGACGGAGTCACCTAGTGCAG | 8150 fluorescence intensity (a.u.)
20 | TCTGGTACTTTCTCTGTTCATGTCTTTATGCACTGTTGCACGGAGTCACCTAGTGCAG | 11100 fluorescence intensity (a.u.)
21 | ATGTGTAACTGACATGTAGGTTCTATGGTTTTAATTACTTCGGAGTCACCTAGTGCAG | 8310 fluorescence intensity (a.u.)

Copied from the list.
binding signal, TGCACCTGTTATTTTCCCGTTCTCTTGTTCTTTCCATTTGCGGAGTCACCTAGTGCAG is entered as 15700 fluorescence intensity (a.u.)
binding signal, CCGCCGCCGCCTCCTGCTCCTTCGACCTGCCCCGGCCCCGCGGAGTCACCTAGTGCAG is entered as 8870 fluorescence intensity (a.u.)

Going on with the list:

Row | Sequence | binding signal
22 | CGAACTCTTCTTTCAATATTGCTTATTTATAATTCCGAATCGGAGTCACCTAGTGCAG | 8700 fluorescence intensity (a.u.)
23 | GCCATGTTTGTTTTAGTGTAAATTTGGAATTTCCTCCAGCCGGAGTCACCTAGTGCAG | 8050 fluorescence intensity (a.u.)
24 | CGGTTGCCTCACATCTTCGGGTGCTTTCCCCTTCCTTTCCCGGAGTCACCTAGTGCAG | 9290 fluorescence intensity (a.u.)
25 | TGTCTGCGTTATTGCTTCTCCGCCAAATTTAAGTCTTCCTCGGAGTCACCTAGTGCAG | 10600 fluorescence intensity (a.u.)
26 | TTCTTCCGCGCCGACCTCTCCGTCCGCCCCGTCGACGAGTCGGAGTCACCTAGTGCAG | 9440 fluorescence intensity (a.u.)
27 | GCTTTGACCGAGGTGGGAGGGTTTTGGGCCCAAGGGAGGTCGGAGTCACCTAGTGCAG | 8850 fluorescence intensity (a.u.)
28 | TGCATTCCTGTCGTGCTCATTACGTAATCTCGCACCCACGCGGAGTCACCTAGTGCAG | 8700 fluorescence intensity (a.u.)
29 | GGTTGCTCAGTTGCCGACACATTTCTGCAGACCCATTTTGCGGAGTCACCTAGTGCAG | 8080 fluorescence intensity (a.u.)
30 | TTCACGCGTGCCACCGCCCCACACCTTCATCCGTCCATCACGGAGTCACCTAGTGCAG | 8790 fluorescence intensity (a.u.)
31 | TGTGAATTGATCTTGATAACATCTGCTACACTGTAAATAACGGAGTCACCTAGTGCAG | 8310 fluorescence intensity (a.u.)
32 | AGTATTAGAGTGGTCTTATTTCTCAGTCTCTTGGTCAACACGGAGTCACCTAGTGCAG | 12600 fluorescence intensity (a.u.)
33 | TTTTATATCCCTCACCGTACGATCCAACGTTCCGATTTCTCGGAGTCACCTAGTGCAG | 8890 fluorescence intensity (a.u.)
34 | AATCTCCTAGTCTGCCAGACATATTCACGACCTATCTTAACGGAGTCACCTAGTGCAG | 10500 fluorescence intensity (a.u.)
35 | CACATTTGATCTCTCATTTTCTGGGTCTGTTCTGTCTGCTCGGAGTCACCTAGTGCAG | 14100 fluorescence intensity (a.u.)
36 | ATTGTTTTATTTAGGTGATTAAATTTGTTTTCATTTATATCGGAGTCACCTAGTGCAG | 9500 fluorescence intensity (a.u.)
37 | TTTCCGTGTCCAACTTACCCTGAGTTTCTGTGTCCAACTTCGGAGTCACCTAGTGCAG | 11400 fluorescence intensity (a.u.)
38 | TGTCCCACTTTGTCCATGTATATCACTGTTCCCCGTGTTGCGGAGTCACCTAGTGCAG | 8220 fluorescence intensity (a.u.)
39 | AAGTGGTTTATGAGAATCCTATTAGTGTCGTGTTGTATAGCGGAGTCACCTAGTGCAG | 10100 fluorescence intensity (a.u.)
40 | CCTCTCTTATCCTCTCCTCCACGGCTCCACGTCTATTCTCCGGAGTCACCTAGTGCAG | 8250 fluorescence intensity (a.u.)
41 | ATTGGTATTCTACATGTCACATCCATCAATTCTAATTCTACGGAGTCACCTAGTGCAG | 8730 fluorescence intensity (a.u.)
42 | TTTATCCACTATAACTCTATTTAGCTCACTATAGTTGTTTCGGAGTCACCTAGTGCAG | 10900 fluorescence intensity (a.u.)
